Compound in the assay: Nc1ncnc2c1ncn2[C@@H]1O[C@H](COP(=O)(O)OP(=O)(O)NP(=O)(O)O)[C@@H](O)[C@H]1O [adenylyl imidodiphosphate]
The assay is described as follows: NP40-soluble protein abundance relative to vehicle (solubility fold change) (ratio); higher = more soluble protein in presence of AMP-PNP. In a few lines:
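Crude Jurkat lysate, prepared by Dounce homogenisation, was exposed to eight concentrations from 0.1 to 10 mM for 10 min at room temperature and then 3 min at 37 °C. Solubilisation used 0.8% NP40 with benzonase for 60 min at 4 °C, followed by ultracentrifugation and TMT labelling of the supernatant for LC-MS/MS. After vsn normalisation of intensities, each value is the fold change against the detergent-processed vehicle within each replicate, across three independent experiments.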

The chains behind the UniProt entries cited, without tags or fusion partners. Where a name states a change or a piece, a line headed by the entry shows the natural chain unless it says otherwise.
UniProt Q9P2I0: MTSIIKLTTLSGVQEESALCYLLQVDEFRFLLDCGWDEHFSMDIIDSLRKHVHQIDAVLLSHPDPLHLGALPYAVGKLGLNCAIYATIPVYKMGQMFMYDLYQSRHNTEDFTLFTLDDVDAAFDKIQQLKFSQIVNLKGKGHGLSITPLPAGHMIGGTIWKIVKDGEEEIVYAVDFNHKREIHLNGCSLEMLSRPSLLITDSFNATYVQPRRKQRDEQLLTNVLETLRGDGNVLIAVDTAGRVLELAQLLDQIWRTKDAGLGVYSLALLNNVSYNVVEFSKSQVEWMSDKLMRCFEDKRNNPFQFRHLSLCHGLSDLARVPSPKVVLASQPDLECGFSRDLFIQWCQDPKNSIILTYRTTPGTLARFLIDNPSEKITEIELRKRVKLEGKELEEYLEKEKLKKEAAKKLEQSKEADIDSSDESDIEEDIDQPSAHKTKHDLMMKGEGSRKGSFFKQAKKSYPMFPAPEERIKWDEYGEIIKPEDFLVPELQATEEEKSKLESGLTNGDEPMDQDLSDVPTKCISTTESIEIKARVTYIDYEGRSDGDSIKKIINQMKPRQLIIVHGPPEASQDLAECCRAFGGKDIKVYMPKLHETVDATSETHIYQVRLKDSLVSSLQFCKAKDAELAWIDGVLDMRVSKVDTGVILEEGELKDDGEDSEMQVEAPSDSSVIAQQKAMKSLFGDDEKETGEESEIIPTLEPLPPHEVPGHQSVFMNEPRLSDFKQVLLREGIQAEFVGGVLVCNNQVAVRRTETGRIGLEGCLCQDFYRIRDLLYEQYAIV
UniProt Q9P2K8: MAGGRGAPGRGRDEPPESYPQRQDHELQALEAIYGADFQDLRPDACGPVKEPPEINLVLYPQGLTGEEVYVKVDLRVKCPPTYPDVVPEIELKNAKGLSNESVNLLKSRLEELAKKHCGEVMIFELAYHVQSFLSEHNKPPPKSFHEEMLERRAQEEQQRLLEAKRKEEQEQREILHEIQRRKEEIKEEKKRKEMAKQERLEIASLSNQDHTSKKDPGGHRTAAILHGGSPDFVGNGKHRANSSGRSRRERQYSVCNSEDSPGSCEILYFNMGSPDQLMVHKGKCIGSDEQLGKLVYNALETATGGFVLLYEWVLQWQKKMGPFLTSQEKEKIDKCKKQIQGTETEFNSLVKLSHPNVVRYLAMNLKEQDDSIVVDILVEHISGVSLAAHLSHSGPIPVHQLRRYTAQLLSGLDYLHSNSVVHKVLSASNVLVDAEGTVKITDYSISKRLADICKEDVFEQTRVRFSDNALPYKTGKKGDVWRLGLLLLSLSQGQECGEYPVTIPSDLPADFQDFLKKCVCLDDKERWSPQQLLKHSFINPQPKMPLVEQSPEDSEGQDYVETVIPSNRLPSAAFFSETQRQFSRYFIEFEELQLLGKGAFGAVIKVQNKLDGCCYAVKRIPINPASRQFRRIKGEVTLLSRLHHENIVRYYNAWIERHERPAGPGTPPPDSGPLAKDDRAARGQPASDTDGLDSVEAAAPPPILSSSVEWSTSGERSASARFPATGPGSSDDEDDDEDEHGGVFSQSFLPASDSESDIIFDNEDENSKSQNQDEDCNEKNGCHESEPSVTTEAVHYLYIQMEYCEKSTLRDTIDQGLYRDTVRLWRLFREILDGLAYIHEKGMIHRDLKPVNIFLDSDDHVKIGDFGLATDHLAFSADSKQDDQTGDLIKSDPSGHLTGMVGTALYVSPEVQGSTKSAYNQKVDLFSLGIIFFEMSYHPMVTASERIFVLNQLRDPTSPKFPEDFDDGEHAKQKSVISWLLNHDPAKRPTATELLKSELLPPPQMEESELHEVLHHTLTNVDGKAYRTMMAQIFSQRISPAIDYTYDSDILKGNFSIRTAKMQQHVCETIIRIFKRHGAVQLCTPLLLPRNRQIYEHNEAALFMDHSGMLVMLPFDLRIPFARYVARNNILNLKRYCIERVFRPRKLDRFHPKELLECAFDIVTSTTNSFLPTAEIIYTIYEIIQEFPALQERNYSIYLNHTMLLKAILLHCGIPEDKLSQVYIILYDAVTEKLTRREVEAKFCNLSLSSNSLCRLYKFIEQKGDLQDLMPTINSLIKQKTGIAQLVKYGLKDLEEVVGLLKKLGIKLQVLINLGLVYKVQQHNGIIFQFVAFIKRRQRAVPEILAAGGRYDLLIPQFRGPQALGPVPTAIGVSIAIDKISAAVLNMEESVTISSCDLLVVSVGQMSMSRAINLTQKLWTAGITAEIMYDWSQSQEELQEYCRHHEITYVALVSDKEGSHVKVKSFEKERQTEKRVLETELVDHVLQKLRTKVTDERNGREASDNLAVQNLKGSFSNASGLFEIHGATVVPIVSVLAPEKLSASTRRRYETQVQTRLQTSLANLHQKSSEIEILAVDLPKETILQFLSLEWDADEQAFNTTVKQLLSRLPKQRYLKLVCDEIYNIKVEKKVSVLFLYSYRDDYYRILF
UniProt Q9NRY5: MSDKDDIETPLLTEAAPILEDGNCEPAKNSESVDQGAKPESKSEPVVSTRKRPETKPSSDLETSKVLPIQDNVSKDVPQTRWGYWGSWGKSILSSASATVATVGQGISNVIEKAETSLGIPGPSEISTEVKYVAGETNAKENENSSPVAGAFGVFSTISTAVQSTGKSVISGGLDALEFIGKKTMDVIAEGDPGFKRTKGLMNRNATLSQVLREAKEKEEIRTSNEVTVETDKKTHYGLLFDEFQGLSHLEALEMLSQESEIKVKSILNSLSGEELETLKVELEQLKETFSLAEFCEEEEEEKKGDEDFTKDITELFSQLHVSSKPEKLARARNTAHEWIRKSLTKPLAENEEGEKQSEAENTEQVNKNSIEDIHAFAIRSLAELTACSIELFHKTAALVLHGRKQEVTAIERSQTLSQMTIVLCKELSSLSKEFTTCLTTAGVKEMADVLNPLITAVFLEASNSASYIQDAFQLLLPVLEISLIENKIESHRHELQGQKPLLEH
UniProt Q9NUY8: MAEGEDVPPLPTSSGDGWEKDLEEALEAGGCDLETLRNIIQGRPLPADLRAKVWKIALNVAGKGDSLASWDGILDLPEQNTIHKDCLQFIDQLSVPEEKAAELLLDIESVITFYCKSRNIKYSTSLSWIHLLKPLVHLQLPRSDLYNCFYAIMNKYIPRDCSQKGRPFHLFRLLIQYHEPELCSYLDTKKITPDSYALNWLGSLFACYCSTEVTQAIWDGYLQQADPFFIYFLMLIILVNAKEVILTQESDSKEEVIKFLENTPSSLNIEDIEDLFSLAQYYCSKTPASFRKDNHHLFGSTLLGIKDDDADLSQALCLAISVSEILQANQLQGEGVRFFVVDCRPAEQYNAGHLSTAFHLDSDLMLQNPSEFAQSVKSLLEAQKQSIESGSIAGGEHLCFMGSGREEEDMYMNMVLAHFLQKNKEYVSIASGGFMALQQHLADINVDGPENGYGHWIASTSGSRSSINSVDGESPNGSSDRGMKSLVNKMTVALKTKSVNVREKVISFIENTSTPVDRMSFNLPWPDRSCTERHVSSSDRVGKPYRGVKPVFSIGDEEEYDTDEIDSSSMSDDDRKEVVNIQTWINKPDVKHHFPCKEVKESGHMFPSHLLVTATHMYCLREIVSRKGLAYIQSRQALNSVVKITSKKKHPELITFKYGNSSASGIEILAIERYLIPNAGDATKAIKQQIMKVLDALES
UniProt Q9NS86: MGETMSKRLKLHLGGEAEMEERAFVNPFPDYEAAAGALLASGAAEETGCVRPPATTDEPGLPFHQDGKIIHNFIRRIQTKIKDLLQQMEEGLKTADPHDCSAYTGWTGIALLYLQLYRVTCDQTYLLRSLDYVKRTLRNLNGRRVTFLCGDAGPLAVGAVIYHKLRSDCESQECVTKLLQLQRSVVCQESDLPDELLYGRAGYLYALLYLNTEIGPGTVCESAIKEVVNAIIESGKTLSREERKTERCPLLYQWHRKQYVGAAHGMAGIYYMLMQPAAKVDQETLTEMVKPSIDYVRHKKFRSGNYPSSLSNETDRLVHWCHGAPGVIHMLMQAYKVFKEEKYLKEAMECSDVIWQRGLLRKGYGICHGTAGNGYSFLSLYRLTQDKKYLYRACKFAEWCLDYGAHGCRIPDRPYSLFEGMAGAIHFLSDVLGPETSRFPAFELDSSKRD
UniProt Q9NS87: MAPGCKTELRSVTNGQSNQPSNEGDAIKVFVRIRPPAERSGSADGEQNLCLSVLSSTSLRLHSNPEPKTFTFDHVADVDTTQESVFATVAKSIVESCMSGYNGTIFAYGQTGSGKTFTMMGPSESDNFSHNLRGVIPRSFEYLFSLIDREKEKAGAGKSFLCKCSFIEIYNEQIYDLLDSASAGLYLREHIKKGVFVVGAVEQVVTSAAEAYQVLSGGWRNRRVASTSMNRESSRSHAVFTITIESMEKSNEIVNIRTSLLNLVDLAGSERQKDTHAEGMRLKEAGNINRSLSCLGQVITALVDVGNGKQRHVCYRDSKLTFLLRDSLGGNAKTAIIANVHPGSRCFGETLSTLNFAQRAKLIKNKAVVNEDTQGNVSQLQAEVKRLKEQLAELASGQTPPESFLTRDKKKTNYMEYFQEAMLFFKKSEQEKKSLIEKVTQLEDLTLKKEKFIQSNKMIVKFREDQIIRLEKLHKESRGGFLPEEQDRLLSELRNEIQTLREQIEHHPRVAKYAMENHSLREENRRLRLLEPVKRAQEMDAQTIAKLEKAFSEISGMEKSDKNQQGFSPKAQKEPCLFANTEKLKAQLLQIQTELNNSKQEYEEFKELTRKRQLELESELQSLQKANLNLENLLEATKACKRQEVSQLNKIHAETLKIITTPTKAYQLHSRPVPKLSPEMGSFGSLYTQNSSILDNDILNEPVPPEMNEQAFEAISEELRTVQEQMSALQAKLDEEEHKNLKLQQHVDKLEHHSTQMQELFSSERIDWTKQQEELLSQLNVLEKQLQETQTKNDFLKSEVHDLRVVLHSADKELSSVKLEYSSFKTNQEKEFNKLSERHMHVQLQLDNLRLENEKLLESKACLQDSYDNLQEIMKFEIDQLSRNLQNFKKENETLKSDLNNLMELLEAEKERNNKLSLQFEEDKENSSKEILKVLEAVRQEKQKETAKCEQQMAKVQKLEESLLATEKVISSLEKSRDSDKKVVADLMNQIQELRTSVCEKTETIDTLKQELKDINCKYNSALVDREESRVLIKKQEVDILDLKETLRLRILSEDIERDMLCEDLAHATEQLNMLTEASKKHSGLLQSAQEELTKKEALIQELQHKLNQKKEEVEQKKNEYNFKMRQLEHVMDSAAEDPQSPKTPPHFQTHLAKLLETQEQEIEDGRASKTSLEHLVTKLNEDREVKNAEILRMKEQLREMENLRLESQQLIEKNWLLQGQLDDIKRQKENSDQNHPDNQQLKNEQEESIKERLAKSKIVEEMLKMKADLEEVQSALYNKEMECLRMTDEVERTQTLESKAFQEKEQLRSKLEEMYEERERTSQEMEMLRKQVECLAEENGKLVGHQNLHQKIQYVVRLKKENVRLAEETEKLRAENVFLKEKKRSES
UniProt Q9NVC6: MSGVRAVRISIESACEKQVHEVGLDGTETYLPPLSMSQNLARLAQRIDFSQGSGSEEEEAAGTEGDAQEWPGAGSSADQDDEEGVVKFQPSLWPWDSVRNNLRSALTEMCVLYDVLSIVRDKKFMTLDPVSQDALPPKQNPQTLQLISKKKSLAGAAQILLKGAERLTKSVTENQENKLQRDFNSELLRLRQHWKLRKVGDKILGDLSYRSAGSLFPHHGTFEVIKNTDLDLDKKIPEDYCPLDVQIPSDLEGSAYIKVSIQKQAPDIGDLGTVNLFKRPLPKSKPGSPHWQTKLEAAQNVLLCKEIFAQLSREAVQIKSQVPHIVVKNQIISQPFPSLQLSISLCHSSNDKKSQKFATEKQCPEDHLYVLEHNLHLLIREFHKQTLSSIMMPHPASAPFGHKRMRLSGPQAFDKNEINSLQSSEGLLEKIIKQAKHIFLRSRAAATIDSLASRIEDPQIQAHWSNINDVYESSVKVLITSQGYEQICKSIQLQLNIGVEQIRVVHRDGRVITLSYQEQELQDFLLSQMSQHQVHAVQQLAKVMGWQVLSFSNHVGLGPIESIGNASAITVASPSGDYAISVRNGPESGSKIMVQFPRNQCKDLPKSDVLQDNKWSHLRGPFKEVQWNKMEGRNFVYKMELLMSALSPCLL

± gives the standard deviation of the averaged measurements. Only a part is listed here, and it is no random draw. Small differences around the control level are noise.

In the case of CPSF2 (UniProt Q9P2I0), the NP40-soluble protein abundance was 1.01 ± 0.021 (concentration: 0.1mM) and 1.02 ± 0.017 (concentration: 0.5mM).
In the case of UniProt Q9NXA8 and related entries, the NP40-soluble protein abundance by setting is: (concentration: 0.1mM) 0.974 ± 0.032; (concentration: 0.5mM) 0.988 ± 0.012.
Taken in the same sequence, the figures for UniProt Q9NVK5 and related entries were 0.96 ± 0.029 and 0.974 ± 0.032.
The matching figures for UniProt Q9P032: 0.978 ± 0.034 and 1 ± 0.05.
The matching figures for UniProt Q9P2K8 and related entries: 1.01 ± 0.029 and 0.974 ± 0.047.
As for FAM114A2 (UniProt Q9NRY5), the NP40-soluble protein abundance runs as follows: (concentration: 0.1mM) 1.01 ± 0.057; (concentration: 0.5mM) 1.01 ± 0.025.
Taken in the same sequence, the figures for UniProt Q9NUY8 and related entries were 0.971 ± 0.012 and 0.9919 ± 0.0081.
Taken in the same sequence, the figures for ABCB10 (UniProt Q9NRK6) were 1.03 ± 0.047 and 0.973 ± 0.082.
Taken in the same sequence, the figures for UniProt Q9P2D3 and related entries were 1.01 ± 0.017 and 1.01 ± 0.027.
As for LANCL2 (UniProt Q9NS86), the NP40-soluble protein abundance reads like this: (concentration: 0.1mM) 0.977 ± 0.046; (concentration: 0.5mM) 0.9796 ± 0.0095.
The matching figures for THG1L (UniProt Q9NWX6): 1.01 ± 0.01 and 1.034 ± 0.008.
The matching figures for RTN4 (UniProt Q9NQC3): 1.01 ± 0.03 and 1.03 ± 0.028.
UniProt Q9NUS5: the NP40-soluble protein abundance was determined as 0.993 ± 0.018 (concentration: 0.1mM) and 0.958 ± 0.023 (concentration: 0.5mM).
Taken in the same sequence, the figures for PIH1D1 (UniProt Q9NWS0) were 0.997 ± 0.026 and 0.961 ± 0.023.
The matching figures for LYAR (UniProt Q9NX58): 1.01 ± 0.081 and 1.01 ± 0.064.
As to UniProt Q9NQ88, the NP40-soluble protein abundance by setting is: (concentration: 0.1mM) 1 ± 0.015; (concentration: 0.5mM) 1.01 ± 0.029.
Turning to UniProt Q9UBD5 and related entries, the NP40-soluble protein abundance is, setting by setting: (concentration: 0.1mM) 1 ± 0.026; (concentration: 0.5mM) 0.99 ± 0.014.
KIF15 (UniProt Q9NS87): the NP40-soluble protein abundance is, setting by setting: (concentration: 0.1mM) 0.998 ± 0.013; (concentration: 0.5mM) 0.997 ± 0.038.
The matching figures for UniProt Q9P0U4 and related entries: 1.01 ± 0.033 and 0.977 ± 0.034.
Taken in the same sequence, the figures for MED17 (UniProt Q9NVC6) were 0.977 ± 0.027 and 0.942 ± 0.062.
Turning to MRPL15 (UniProt Q9P015), the NP40-soluble protein abundance was 1.04 ± 0.044 (concentration: 0.1mM) and 1.01 ± 0.07 (concentration: 0.5mM).
As to PSMC3IP (UniProt Q9P2W1), the NP40-soluble protein abundance was 0.993 ± 0.014 (concentration: 0.1mM) and 1.03 ± 0.061 (concentration: 0.5mM).

Values taken from the supplement of paper PMC6411743.
